{"sequences": {"note": "By UniProt entry, the sequences of proteins in these tests, tags left out.", "UniProt P28223, whole entry": "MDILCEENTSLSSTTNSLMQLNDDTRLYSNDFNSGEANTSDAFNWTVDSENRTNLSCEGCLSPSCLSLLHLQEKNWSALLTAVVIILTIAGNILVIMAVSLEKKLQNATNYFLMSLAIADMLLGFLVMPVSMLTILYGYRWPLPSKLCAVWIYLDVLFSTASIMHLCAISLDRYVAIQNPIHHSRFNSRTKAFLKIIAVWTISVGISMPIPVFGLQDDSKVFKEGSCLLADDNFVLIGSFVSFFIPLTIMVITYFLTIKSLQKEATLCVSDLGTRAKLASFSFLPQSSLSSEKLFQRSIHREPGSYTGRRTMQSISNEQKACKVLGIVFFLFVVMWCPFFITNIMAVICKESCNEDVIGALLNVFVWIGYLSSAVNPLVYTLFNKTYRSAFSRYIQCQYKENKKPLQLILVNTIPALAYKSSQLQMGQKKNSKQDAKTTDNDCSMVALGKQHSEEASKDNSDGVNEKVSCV", "UniProt P14842, whole entry": "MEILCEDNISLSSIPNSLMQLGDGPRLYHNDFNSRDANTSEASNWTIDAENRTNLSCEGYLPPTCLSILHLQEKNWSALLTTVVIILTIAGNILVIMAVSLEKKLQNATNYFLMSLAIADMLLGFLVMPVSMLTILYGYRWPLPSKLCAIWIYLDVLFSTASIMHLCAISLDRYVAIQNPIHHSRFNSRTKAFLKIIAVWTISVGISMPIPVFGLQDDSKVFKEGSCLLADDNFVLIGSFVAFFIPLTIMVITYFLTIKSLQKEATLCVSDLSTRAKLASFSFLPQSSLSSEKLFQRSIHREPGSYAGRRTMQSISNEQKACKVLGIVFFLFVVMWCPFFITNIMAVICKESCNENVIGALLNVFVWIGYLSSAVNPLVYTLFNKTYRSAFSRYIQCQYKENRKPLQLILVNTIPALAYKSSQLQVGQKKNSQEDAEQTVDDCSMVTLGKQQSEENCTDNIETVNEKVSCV"}, "source": "BindingDB's records for doi:10.1038/sj.mp.4000336", "about": "(University of Toronto, 1998)", "key": {"[1]": {"molecular_target": "5-hydroxytryptamine receptor 2A (Homo sapiens, UniProt P28223)"}, "[2]": {"molecular_target": "5-hydroxytryptamine receptor 2A (Rattus norvegicus, UniProt P14842)"}}, "data": [{"smiles": "COc1cc(C(C)=O)ccc1OCCCN1CCC(c2noc3cc(F)ccc23)CC1", "values": [{"measurement": "Ki", "setting": "[1]", "result": 0.12, "unit": "nM"}]}, {"smiles": "OCCOCCN1CCN(C2=Nc3ccccc3Sc3ccccc32)CC1", "note": "[2-[2-(4-dibenzo[b,f][1,4]thiazepin-11-ylpiperazin-1-yl)ethoxy]ethanol]", "values": [{"measurement": "Ki", "setting": "[2]", "result": 110, "unit": "nM"}]}]}
